Test results taken from patent US20240317816A1, “PEPTIDES FOR IMMUNOTHERAPY” (Genevive, Inc., priority 2021, published 2024).
These are yes or no findings as the source states them, for the method shown. Some entries that bind do so weakly or less than the wild type.

Chains of the proteins cited; added tags and fusions are not shown.
UniProt P61073: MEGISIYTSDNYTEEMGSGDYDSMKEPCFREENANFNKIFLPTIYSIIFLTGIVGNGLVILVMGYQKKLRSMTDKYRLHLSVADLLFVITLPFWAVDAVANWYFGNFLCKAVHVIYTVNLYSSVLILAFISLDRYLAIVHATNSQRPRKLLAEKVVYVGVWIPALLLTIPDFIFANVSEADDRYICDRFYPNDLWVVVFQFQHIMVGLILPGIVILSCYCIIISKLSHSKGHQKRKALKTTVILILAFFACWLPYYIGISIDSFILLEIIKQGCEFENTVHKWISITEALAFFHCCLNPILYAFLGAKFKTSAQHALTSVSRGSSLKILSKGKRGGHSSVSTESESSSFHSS

Target: CXCR4 (Homo sapiens, UniProt P61073)
Test: hit of DualSystems LRC-TriCEPS capture and SelectScreen reporter assay, confirmed in PathHunter beta-arrestin GPCR panel

Question: Which binding does the source give for MKVRPSVKPMCEKCKIIRRKGRVMVICENPKHKQRQG (also called PEP802) [SG-3-00802] here?
Answer: The binding was “binds”.
